PubChem BioAssay AID743454 | Peter MacCallum Cancer Centre | 2014

Purpose: 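Search for knock-downs that restore vorinostat killing in resistant colon cancer cells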 (primary screen)
Cell system: human HCT116-VR colon cancer cells, selected for vorinostat resistance
Reagent: siRNA pool against human genes, 40 nM siRNA pool
Duration: vorinostat for 24 h, read-out about 72 h after transfection
Challenge: vorinostat at 2.5 µM final
Detection: 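Cell viability by CellTiter-Fluor and caspase 3/7 activity by luminescence, each scaled to mock wells per plate, duplicates averaged, then robust z-scored over all plates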
Reading the numbers: viability robust z-score: higher = more viable cells than screen typical; caspase robust z-score: higher = more caspase 3/7 activity than screen typical
Rule for the call: 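Hits are knock-downs in viability class RV1/RV2 or caspase class CA1/CA2, excluding ones that killed cells in the no-drug cell-count arm; hits then retested with single siRNAs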
The whole screen tested about 18,000 reagents; this is a random part of them. In the full data, 450 (2.5%) were called active. 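Single biological run; no consistent viability z cut-off exists, so the class columns, not z-scores, define the calls.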 A number with no mark means an inactive call. No sequences are given here.

no.	target	viability hit class	caspase hit class	viability robust z-score	caspase robust z-score
1	ARNT2 (GeneID 9915)	no change	no change	2.3	0.97
2	STAP1 (GeneID 26228)	no change	no change	0.02	-0.92
3	CCDC88B (GeneID 283234)	no change	no change	0.74	-0.78
4	CBX3 (GeneID 11335)	no change	no change	0.67	-0.03
5	SDF4 (GeneID 51150)	no change	no change	-0.62	2.15
6	KRAS (GeneID 3845)	no change	no change	-3.54	2.08
7	MDH2 (GeneID 4191)	no change	no change	1.27	-0.12
8	SLC25A18 (GeneID 83733)	no change	no change	1.38	-0.05
9	PPIL4 (GeneID 85313)	no change	no change	0.53	-0.36
10	EIF2D (GeneID 1939)	no change	no change	0.9	-0.2
11	NAT16 (GeneID 375607)	no change	no change	-0.04	0.07
12	RAB11FIP4 (GeneID 84440)	no change	no change	0.42	-0.09
13	IGFBPL1 (GeneID 347252)	no change	no change	-0.16	-0.45
14	CHM (GeneID 1121)	no change	no change	-0.24	0.05
15	MTHFS (GeneID 10588)	no change	no change	0.66	-0.83
16	RBM14 (GeneID 10432)	no change	no change	0.42	2.33
17	F3 (GeneID 2152)	no change	no change	0.58	0.55
18	CTU2 (GeneID 348180)	no change	no change	-0.93	1.49
19	TM4SF19 (GeneID 116211)	no change	no change	-0.45	-0.24
20	KNSTRN (GeneID 90417)	no change	no change	-0.54	-0.05
21	TMPRSS11F (GeneID 389208)	RV2 (reduced viability) (active)	no change	-3.4	3.41
22	KIFC1 (GeneID 3833)	no change	no change	0.74	3.36
23	ARFIP1 (GeneID 27236)	no change	no change	0.9	2.84
24	CDH15 (GeneID 1013)	no change	no change	0.2	5.06
25	CD24 (GeneID 100133941)	no change	no change	-1.6	2.62
26	OR2D2 (GeneID 120776)	no change	no change	0.2	0.54
27	S100A1 (GeneID 6271)	no change	no change	1.23	3.91
28	KRTAP5-10 (GeneID 387273)	no change	no change	0.14	-0.94
29	SH3BP1 (GeneID 23616)	no change	no change	0.49	0.44
30	RRP12 (GeneID 23223)	no change	no change	-1.83	0.48
31	ZFYVE16 (GeneID 9765)	no change	no change	-2.03	-0.32
32	EIF3F (GeneID 8665)	no change	no change	-2.39	0.64
33	EMC10 (GeneID 284361)	no change	no change	-0.66	0.51
34	LRRC8E (GeneID 80131)	no change	no change	0.36	-0.5
35	DUSP26 (GeneID 78986)	no change	no change	0.16	0.38
36	RNF2 (GeneID 6045)	no change	no change	-0.1	0.04
37	ZC3H12A (GeneID 80149)	no change	no change	0.49	0.53
38	RNF220 (GeneID 55182)	no change	no change	0.08	0.55
39	RGS17 (GeneID 26575)	no change	no change	0.06	-0.77
40	NHLH2 (GeneID 4808)	no change	no change	-0.7	-0.99
41	LORICRIN (GeneID 4014)	no change	no change	-0.17	-0.46
42	OR10AG1 (GeneID 282770)	no change	no change	1.07	1.79
43	CTRC (GeneID 11330)	no change	no change	-1.34	0.06
44	GPX2 (GeneID 2877)	no change	no change	0.03	2.75
45	BTBD17 (GeneID 388419)	no change	no change	-0.98	0.29
46	STIP1 (GeneID 10963)	no change	no change	2.23	-0.3
47	NEK3 (GeneID 4752)	no change	no change	-1.46	0.99
48	DDX41 (GeneID 51428)	no change	no change	-0.97	-0.14
49	TXNDC2 (GeneID 84203)	no change	no change	-0.69	0.68
50	CDKN1A (GeneID 1026)	no change	no change	1.6	0.04
51	TMCO4 (GeneID 255104)	no change	no change	-0.19	-0.53
52	MYO1B (GeneID 4430)	no change	no change	0.22	0.41
53	AHCY (GeneID 191)	no change	no change	-1.38	0.22
54	LINC02913 (GeneID 414318)	no change	no change	0.57	-0.39
55	RALY (GeneID 22913)	no change	no change	1.58	0.68
56	ARL4A (GeneID 10124)	no change	no change	0.48	1.88
57	CDKN3 (GeneID 1033)	no change	no change	-0.65	0.85

Part of the list above, reformatted:
target | viability hit class | caspase hit class | viability robust z-score | caspase robust z-score
CTU2 (GeneID 348180) | no change | no change | -0.93 | 1.49
TM4SF19 (GeneID 116211) | no change | no change | -0.45 | -0.24
KNSTRN (GeneID 90417) | no change | no change | -0.54 | -0.05
TMPRSS11F (GeneID 389208) | RV2 (reduced viability) (active) | no change | -3.4 | 3.41
KIFC1 (GeneID 3833) | no change | no change | 0.74 | 3.36
ARFIP1 (GeneID 27236) | no change | no change | 0.9 | 2.84
CDH15 (GeneID 1013) | no change | no change | 0.2 | 5.06
CD24 (GeneID 100133941) | no change | no change | -1.6 | 2.62
OR2D2 (GeneID 120776) | no change | no change | 0.2 | 0.54
